This data set deals with human whole blood. In words: LPS-stimulation of human whole blood, TNF-α release. It counts as cell-based. The following applies: IC50 human whole blood / IC50 IKKβ enzyme. The method, then: Whole blood was taken by venous puncture using heparinised vacutainers (Becton Dickinson) and diluted in an equal volume of RPMI1640 tissue culture media (Sigma). 100 μl was plated in V-bottomed 96 well tissue culture treated plates. 2 hours after the addition of the inhibitor in 100 μl of RPMI1640 media, the blood was stimulated with LPS (E coli strain 005:B5, Sigma) at a final concentration of 100 ng/ml and incubated at 37° C. in 5% CO2 for 6 hours. TNF-α levels were measured from cell-free supernatants by sandwich ELISA (R&D Systems #QTA00B). Human heparinised blood (17-IU/ml) was diluted with an equal volume of RPMI-1640 and then sub-aliquoted into 96 well microtitre wells (100 µl/well). Inhibitors of IKKβ that had been serially diluted in RPMI-1640 were added to the wells (100 µl/well) to give a range of final concentrations (5-10000 nM). After incubation for 2 hours at 37° C., TNF[…] production was stimulated for 6 hours at 37° C. by the addition of 10 µl of LPS (E Coli 055:B5) to give a final concentration of 100 ng/ml. Plates were then centrifuged for 3 minutes at 800 g and TNF[…] present in the supernatant then measured, using a QuantiGlo Chemiluminescent ELISA (R&D Systems). The human whole blood assay measures the ability of the compounds to inhibit the LPS stimulated production of TNF alpha in human blood cells mediated by IKKβ in a physiologically relevant setting.

In the case of `NC(=O)Nc1sc(-c2ccccc2)cc1C(N)=O` [Compound I, reference compound], the “Ratio: Human whole blood/enzyme” value was 100.
The result for `CC(C)(NCc1cccc(-c2cc(C(N)=O)c(NC(N)=O)s2)c1)C(=O)OC1CCCC1` [Example 1, Cyclopentyl N-{3-[4-carbamoyl-5-(carbamoylamino)-2-thienyl]benzyl}-2-methylalaninate] reads 1.

Values taken from US20110046210A1, “SUBSTITUTED THIOPENECARBOXAMIDES AS IKK-BETA SERINE-, THREONINE-PROTEIN KINASE INHIBITORS” (CHROMA THERAPEUTICS LTD., priority 2008, published 2011).
